According to the supplement of paper PMC10849652:
This is one part of the list.

By UniProt entry, the sequences of proteins in these tests, tags left out. Where a name states a change or a piece, a line headed by the entry shows the natural chain unless it says otherwise.
UniProt Q9H0C5: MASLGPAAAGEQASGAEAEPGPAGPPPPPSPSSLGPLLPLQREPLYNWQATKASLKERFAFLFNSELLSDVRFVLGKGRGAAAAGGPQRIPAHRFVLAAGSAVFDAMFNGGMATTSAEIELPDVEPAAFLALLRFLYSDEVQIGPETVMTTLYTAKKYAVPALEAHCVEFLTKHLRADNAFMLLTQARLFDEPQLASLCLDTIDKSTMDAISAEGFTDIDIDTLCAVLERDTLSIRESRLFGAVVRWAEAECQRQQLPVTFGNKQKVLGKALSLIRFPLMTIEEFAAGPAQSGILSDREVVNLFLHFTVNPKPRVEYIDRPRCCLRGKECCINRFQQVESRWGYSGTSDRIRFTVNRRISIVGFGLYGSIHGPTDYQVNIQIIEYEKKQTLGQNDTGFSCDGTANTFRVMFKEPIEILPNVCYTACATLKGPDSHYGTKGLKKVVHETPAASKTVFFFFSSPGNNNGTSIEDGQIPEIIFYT
UniProt Q9UL45: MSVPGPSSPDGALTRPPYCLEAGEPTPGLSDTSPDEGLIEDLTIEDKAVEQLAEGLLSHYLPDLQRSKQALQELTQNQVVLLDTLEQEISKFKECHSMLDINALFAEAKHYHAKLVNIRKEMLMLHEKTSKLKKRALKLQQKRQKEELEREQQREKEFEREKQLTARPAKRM
UniProt Q9BUT1: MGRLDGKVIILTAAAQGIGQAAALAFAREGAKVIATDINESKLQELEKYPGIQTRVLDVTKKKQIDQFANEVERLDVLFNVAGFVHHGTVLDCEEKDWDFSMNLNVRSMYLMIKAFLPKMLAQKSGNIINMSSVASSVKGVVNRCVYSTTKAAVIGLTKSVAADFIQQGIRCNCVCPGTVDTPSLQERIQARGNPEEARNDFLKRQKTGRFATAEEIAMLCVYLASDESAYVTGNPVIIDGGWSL
UniProt P21953: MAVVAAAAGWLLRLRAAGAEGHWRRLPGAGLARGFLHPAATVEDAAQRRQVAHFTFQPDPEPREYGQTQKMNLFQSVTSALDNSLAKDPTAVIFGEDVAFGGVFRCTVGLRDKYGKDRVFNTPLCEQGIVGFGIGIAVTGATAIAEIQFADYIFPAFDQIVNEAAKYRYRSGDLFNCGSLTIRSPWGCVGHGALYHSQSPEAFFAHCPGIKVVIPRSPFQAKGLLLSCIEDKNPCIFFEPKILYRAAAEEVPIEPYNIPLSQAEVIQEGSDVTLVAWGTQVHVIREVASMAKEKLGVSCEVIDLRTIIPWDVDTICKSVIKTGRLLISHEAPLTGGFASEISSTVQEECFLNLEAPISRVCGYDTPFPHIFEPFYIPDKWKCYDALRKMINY
UniProt P11274: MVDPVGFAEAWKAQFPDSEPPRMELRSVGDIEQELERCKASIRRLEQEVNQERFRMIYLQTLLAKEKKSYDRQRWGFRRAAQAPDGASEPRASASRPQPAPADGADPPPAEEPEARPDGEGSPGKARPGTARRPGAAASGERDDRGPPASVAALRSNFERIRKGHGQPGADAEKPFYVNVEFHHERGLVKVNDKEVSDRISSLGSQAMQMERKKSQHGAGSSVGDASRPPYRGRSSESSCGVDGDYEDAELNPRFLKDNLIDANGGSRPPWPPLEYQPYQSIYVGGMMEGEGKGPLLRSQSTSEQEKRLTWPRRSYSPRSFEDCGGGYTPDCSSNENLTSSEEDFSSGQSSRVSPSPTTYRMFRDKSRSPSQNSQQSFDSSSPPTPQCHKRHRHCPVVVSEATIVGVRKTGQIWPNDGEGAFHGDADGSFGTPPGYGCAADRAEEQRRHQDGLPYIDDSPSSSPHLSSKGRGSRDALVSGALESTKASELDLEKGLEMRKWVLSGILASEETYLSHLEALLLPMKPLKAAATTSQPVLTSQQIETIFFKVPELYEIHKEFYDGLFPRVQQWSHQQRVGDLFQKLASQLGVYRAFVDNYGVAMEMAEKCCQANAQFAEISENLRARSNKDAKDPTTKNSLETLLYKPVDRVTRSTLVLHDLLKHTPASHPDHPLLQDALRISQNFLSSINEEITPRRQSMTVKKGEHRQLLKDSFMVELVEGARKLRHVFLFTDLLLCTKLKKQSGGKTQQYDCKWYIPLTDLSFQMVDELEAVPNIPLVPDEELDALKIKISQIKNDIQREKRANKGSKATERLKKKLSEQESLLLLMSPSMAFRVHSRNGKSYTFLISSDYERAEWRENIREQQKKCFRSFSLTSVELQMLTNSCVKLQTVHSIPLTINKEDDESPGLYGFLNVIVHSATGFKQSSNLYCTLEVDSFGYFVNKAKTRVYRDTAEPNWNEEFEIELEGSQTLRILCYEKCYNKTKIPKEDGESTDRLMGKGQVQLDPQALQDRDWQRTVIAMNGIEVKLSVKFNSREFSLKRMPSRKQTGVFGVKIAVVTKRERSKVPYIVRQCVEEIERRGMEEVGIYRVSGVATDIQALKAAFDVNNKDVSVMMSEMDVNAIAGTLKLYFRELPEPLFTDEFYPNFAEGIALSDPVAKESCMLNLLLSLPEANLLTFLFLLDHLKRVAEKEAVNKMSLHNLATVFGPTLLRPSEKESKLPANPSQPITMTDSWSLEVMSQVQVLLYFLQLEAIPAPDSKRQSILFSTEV
UniProt P25440, whole entry, looked up: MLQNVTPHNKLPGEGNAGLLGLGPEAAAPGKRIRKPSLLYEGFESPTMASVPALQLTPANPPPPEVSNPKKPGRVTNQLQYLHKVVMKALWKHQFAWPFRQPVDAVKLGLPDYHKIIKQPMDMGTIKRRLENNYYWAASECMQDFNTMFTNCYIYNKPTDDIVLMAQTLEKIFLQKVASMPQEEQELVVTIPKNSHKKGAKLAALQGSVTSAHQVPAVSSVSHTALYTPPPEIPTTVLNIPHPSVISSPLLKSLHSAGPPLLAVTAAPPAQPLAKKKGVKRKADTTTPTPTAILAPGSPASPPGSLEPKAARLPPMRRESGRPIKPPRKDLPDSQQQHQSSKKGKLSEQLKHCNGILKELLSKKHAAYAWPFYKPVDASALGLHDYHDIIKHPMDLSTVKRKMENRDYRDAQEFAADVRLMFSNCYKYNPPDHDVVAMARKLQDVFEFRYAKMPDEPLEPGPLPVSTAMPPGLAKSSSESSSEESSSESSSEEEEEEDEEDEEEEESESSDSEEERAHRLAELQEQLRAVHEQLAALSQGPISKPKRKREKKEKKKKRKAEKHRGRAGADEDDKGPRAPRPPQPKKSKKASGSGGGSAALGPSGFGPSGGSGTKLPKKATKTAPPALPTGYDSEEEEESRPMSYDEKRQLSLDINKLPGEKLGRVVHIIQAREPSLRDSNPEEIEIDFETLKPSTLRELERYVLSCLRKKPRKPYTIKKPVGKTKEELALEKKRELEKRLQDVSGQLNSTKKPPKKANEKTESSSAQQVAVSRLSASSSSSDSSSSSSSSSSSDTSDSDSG
UniProt Q9UQB8: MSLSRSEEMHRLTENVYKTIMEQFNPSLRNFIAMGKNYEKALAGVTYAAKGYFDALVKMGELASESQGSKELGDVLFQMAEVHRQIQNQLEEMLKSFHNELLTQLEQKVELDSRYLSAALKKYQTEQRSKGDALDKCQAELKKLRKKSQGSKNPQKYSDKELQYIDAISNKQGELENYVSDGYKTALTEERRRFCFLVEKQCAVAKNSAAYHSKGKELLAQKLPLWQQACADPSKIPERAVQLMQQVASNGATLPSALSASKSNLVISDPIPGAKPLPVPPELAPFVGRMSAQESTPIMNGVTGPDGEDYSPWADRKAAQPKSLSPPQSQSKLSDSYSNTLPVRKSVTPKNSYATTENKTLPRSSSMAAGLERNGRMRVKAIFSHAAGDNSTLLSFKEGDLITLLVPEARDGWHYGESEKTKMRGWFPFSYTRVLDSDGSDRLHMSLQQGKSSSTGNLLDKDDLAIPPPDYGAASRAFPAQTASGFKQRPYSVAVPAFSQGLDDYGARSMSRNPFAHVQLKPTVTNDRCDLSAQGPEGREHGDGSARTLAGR
UniProt P54132: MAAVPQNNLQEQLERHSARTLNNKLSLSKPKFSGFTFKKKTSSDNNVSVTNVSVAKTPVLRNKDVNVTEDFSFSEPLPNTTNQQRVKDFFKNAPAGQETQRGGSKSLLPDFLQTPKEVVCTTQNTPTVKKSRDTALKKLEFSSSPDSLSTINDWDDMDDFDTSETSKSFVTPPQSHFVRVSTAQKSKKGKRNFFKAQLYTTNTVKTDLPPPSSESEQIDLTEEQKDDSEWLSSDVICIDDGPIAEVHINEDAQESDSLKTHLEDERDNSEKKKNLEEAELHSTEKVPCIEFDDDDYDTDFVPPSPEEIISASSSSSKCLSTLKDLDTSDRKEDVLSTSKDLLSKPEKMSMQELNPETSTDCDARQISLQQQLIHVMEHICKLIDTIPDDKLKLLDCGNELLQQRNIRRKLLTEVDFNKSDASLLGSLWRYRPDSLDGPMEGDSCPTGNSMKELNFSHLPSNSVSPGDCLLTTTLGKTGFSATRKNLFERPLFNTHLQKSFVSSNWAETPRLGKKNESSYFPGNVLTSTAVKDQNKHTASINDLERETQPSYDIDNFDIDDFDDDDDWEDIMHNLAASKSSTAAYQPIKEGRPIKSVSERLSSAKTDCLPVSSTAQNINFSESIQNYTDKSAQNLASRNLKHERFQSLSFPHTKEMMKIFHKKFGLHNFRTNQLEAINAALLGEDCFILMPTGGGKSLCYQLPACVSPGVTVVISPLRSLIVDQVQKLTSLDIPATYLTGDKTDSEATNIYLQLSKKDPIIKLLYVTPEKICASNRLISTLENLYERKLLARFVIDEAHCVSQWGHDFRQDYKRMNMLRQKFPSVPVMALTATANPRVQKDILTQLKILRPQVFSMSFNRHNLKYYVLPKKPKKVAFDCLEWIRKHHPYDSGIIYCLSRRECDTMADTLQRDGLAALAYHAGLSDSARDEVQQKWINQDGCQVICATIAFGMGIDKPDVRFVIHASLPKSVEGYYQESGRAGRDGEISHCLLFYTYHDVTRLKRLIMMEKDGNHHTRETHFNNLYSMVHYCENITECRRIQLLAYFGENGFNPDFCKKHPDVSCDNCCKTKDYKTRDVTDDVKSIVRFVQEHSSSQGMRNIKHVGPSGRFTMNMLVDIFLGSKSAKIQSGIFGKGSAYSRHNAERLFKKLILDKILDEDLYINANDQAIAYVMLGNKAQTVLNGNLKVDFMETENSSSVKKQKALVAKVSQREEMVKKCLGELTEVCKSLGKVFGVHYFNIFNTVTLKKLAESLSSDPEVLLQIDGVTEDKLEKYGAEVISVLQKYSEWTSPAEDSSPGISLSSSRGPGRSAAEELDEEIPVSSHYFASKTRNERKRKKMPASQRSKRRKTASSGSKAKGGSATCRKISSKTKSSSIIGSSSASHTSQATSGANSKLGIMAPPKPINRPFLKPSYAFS
UniProt Q8TD16, whole entry, looked up: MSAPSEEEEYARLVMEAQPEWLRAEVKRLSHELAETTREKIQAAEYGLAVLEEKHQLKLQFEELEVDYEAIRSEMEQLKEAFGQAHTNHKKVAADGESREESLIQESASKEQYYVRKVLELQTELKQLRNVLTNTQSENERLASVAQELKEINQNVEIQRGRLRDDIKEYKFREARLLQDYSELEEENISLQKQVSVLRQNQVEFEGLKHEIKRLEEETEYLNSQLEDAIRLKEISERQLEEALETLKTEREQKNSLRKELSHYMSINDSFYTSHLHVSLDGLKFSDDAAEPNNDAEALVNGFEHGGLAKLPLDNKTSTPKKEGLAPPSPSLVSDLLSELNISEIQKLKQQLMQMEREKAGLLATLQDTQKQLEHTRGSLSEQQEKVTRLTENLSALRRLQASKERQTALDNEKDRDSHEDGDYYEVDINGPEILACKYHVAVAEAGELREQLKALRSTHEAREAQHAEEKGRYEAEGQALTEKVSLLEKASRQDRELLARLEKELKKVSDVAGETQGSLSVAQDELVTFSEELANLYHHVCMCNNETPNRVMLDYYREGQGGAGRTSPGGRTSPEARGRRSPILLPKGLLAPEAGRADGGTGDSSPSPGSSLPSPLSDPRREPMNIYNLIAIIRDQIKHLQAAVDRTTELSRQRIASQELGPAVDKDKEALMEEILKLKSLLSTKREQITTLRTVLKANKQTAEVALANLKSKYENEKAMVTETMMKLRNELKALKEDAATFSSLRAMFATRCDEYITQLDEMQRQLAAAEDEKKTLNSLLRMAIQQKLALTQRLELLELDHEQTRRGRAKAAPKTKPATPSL
UniProt Q8TDH9: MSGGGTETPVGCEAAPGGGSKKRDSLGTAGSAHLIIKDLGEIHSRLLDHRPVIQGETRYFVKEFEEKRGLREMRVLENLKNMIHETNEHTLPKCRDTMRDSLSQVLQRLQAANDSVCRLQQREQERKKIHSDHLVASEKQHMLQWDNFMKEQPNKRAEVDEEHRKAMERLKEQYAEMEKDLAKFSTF

What was measured:
Experiment in all cases: log2 fold change, soluble protein after heating vs DMSO (PISA); higher = thermal stabilisation; K562 lysate, 10 uM; active = over 0.2 and 3.5 SD of the protein, either way, in both replicates (recomputed)
[1] = compound: C1=CC=C(C=C1)[C@H](COC2=CC3=C(C=C2)NC(=O)N3)NC(=O)C4=CC=CN(C4=O)CC5=CC(=C(C=C5)F)F
How it was run: (§1)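 Thermal stability, expressed as log-two fold change relative to solvent controls, is given from duplicates. Crude K562 extract in PBS pH 7.4 with 1 mM MgCl2, at 1 mg/mL protein, was treated with 10 μM compound for 30 min and heated in aliquots for 3 min across 48°C-58°C. After pooling, adjustment to 0.5% NP-40 at 4°C and centrifugation at 21,000xg for 90 min, supernatant protein was measured by TMTpro 16plex LC-MS/MS with channel sums equalised.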

[2] = compound: CC1=C(SC2=C1C(=N[C@H](C3=NN=C(N32)C)CC(=O)N)C4=CC=C(C=C4)Cl)C
How it was run: as §1

[3] = compound: CC1=C2C(=CC=C1)N=C(N(C2=O)C3=CC=CC=C3C)CN4C=NC5=C(N=CN=C54)N
How it was run: as §1

[4] = compound: c1ccc([C@@H]2C[C@H]2NC2CCNCC2)cc1
How it was run: as §1

[5] = compound: Cc1sc2c(c1C)C(c1ccc(Cl)cc1)=N[C@@H](CC(=O)OC(C)(C)C)c1nnc(C)n1-2
How it was run: as §1

| Target | log2 fold change [1] | log2 fold change [2] | log2 fold change [3] | log2 fold change [4] | log2 fold change [5] |
| --- | --- | --- | --- | --- | --- |
| BTBD1 (UniProt Q9H0C5) | inactive: -0.064 | inactive: -0.054 | inactive: 0.128 | inactive: -0.013 |  |
| BLOC1S6 (UniProt Q9UL45) | inactive: -0.078 | inactive: 0.035 | inactive: -0.04 | inactive: 0.021 | inactive: -0.046 |
| BDH2 (UniProt Q9BUT1) | inactive: -0.037 | inactive: 0.049 |  |  | inactive: 0.055 |
| BCKDHB (UniProt P21953) | inactive: 0.027 | inactive: 0.023 | inactive: 0.09 | inactive: 0.119 | inactive: 0.074 |
| BCR (UniProt P11274) | inactive: -0.03 | inactive: 0.005 | inactive: -0.014 | inactive: 0.027 | inactive: 0.007 |
| BRD2 isoform 2 (UniProt P25440) | inactive: 0.024 | active: 1.06 | inactive: 0.081 | inactive: 0.071 | active: 0.644 |
| BAIAP2 (UniProt Q9UQB8) | inactive: -0.016 | inactive: 0.006 | inactive: 0.008 | inactive: 0.044 | inactive: 0.06 |
| BLM (UniProt P54132) | inactive: 0.059 | inactive: 0.03 | inactive: -0.005 | inactive: 0.114 | inactive: -0.002 |
| BICD2 isoform 2 (UniProt Q8TD16) | inactive: 0.006 | inactive: 0.026 | inactive: 0 | inactive: -0.005 | inactive: -0.035 |
| BLOC1S5 (UniProt Q8TDH9) | inactive: 0.002 | inactive: -0.022 | inactive: -0.018 | inactive: -0.016 | inactive: 0.044 |
